The values below come from PMC5069765, “OsdR of Streptomyces coelicolor and the Dormancy Regulator DevR of Mycobacterium tuberculosis Control Overlapping Regulons” (mSystems, 2016).

Series [1] deals with T1, OsdR~P (phosphorylated with acetyl phosphate) (Streptomyces coelicolor) (UniProt Q9RI42).
T1 sequence: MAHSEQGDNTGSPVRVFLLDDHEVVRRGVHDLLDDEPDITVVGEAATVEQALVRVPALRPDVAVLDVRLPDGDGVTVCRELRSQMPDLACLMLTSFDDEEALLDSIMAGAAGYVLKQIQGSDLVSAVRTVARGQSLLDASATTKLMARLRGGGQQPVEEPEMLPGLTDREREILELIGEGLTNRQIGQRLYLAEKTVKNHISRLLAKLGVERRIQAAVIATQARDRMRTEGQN
The series can be described thus: EMSA. The settings on record: EMSA with 32P-labeled probes, 20 fmol DNA (50-mers), AcP phosphorylation, temperature not given (cited method).

Series [2] has as its target T1, OsdR~P (phosphorylated with acetyl phosphate) (Streptomyces coelicolor). The series can be described thus: competition with a labelled probe. The settings on record: unlabeled wt competitor, 10 uM protein, 20 fmol labeled wt probe, EMSA with 32P-labeled probes, 20 fmol DNA (50-mers), AcP phosphorylation, temperature not given (cited method), recombinant protein, protein details: His6, label: 32P.

Where [3] appears, read: AcP-phosphorylated, uM OsdR, recombinant …, protein details: His6, label: 32P, probe letters rebuilt from the primers and the genome.
[4] abbreviates: AcP-phosphorylated, stronger than devR, uM OsdR, recombinant protein, protein details: His6, label: 32P, probe letters rebuilt from the primers and the genome.
Where [5] appears, read: most probes fully bound at 1 uM OsdR~P, recombinant protein, protein details: His6, label: 32P, probe letters rebuilt from the primers and the genome.

The exact form of at least one protein or probe is not confirmed.

On to “AGGTCGACAGGCCCACCAGGGACCCGCCGACGACCAGGACCGGGACGCGGTGGGTCCGGTCGCCCCCGGGGGCGGCGCCGCCGGACCGGTCGGCTCTTTCGTTCATGATTCGTCCTCCGTTGTACGACAGGTGTCCGTCAGGGGTTGCGTCGGAAGTGCGTCGGGAGTGCGTCGGACGCGCGTTCAGATGCGCGTCAGGGATGCGTCAGGAGTGCGTCAGGGGTCCGAGAGGGGTCCGACCGAGGTGCGCCGGGGCCTTCATGCATGCCCCGTACGGCCCGTCGGGGCCCGCCACGGCGCAGGCTTCACCCGCTTAACCCTCCTGGTTCGCGGTCCCCGCGGGCACGGCCCACGATCGTGCTTACGCGACCGTCGCACCCCGCCGGCCTGGCGGGCGCCGCCGACGATCGCCCCAGTCCACGAGGATGACCGGAGAAGAGGTGGGCCGGATGACGGTCTCTCCCGTCGTAGCGACGGATG (double strand) [SCO5320-SCO5321 intergenic region (whiE)]”, for which the binding result in series [1] (setting [3]) is “binds”.

Regarding “CCCATCACCCTGCGGGCAGGGACGGTCGGCCCCGTCCCGGGACCACAGGC (double strand) [uspA (SCO0200) 50-mer wt]”, the binding result in series [1] (AcP-phosphorylated, uM OsdR, recombinant …, protein details: His6, label: 32P) is “binds”; in series [2] it was “binds”.

On to “CGGGAAGGGTGGTGGCCATTTGATGCCTCCTAATCGATGGAAACGGATGCCTTTGATCCGACCAGCCCATCGTGGCCAGGGCTAGGGACAGAAGTCCCCGAAGCGCGGGCCATTTGTCCGCGCCCGTCGGTGATCCACTTGGGGACCATTGACCCTGTTGTCTGCCAACCGCCGTTCAGA (double strand) [hspX promoter]”, for which the binding result in series [1] (setting [4]) is “binds”.

Take “CTCATCGACCGCCCACAACGCCGCATGCGTTGCCGCCCTTGACCCGTCGATACCAACGACCACTGCCCGAGCTGGCCGAGGATCGCTCATCGCCGTCTCCTTCGCTGGGGCGGATACATCCCGTCGGTTCAGCGGTACGTTACTGGCGGGGACCGCTATCTCCCAGGGGCGTTGGTCCCCACCTGAGGGCCGTTAGTCCTTATCGACCGATGACAGACGCAACCCGTCAGGGCGAGAATGAATCTCACCTATCGCACGGGTGG (double strand) [Rv3134c promoter]”: the binding result in series [1] (setting [4]) is “binds”.

As for “GCCGACGACGAAAACGCCGACCTGCCAGCTCAGGTGCAGCGCACGACGCGCCTTGACGAATTCCGGCGCCCGCGAACCGAGCGCCCGCTCGGCCGTGGCCTCGTCCGTCCCCGTACGGTCTGCCGCCACGGCTGCCTCGCCGGGCTTGTTACTCCCCGTGTTCATACGGCCAAACACTACCGGAGCGAAACCTGTCACCGGAATGGGCGTACGACTCGAACGGTCCATCGGCCGGAAGAGTTACGTAAACACACGCAAAACACTCAGAGGGGTTTACAACGGCACCGTAGGTGGCATGTCGATTTCGCCGACGTGCGAATCCCCGAGCGCACACTGAGCGAAAGGCCCTGGCGCTTATGAACACCACGGTCAGCTGCGAGCTGCACCTGCGCCTCGTTGTGTCGAGCGAGTCCTCCCTGCCTGTCCCCGCAGGCCTGCGGTACGACACGGCCGA (double strand) [ssgB (SCO1541) promoter]”, the binding result in series [1] (setting [3]) is “binds”.

In the case of “GTCAGAATTCCGTGCACCAAGGTGATACCGCTCCCCCGCCGCCGGGCCTCGTGAGCCGCCCAGTGCGCGGCCGCGAGGCTCGCGGGCGACCGGTCGATCCCCACCGCGATGTCGTACTCCATGACGTTTCCCCTGCCTCGTCGATCGGTTTCCGGACGTCCCCGAGCCTCCTTCTCGCCGCGGCGGGGCCGCAGGGGCCGTCCAGCCCTCCTCCGAGCCCTTCGGACCCTGCGGGGCGGGGGGCGGCACCGGGCCGACCGGCCCTCCGGCCGGGACCGCCGGTACCTCGCGCTCAGGAGGCCGGCGTTCGACGCTGGAAGGACCGAGCCCGCGACCGAGGAGCGCAGCGCCATGGCCCGTTACGTGTACGACTTCACCGAGGGCGGCCGTGACATGGCCGGACTTCTCGGTGGATCCTGAC (double strand) [SCO0207-SCO0208 intergenic region]”, the binding result in series [1] (setting [5]) is listed as “binds”.

Turning to “GTCAGAATTCCGTGTGCTCCAGCTCGGCCAGGGCGTTGCGCACCAGGGCACGCGCCACCGGCACCGCCGCGGCGGAGTGCGGCAGTGCGATGCGCCAGGAGGCGGGTGCGGGGAAGTGATCGTGCACGGCAGGTCCGTTTCGTGGAGCAGGGGAGTCCTGTCCTGCTTTCAACCTTATGAATGGTACGGCGCCGCCCGGCAGAGCCGTTCGACGGGCACCCTCCGGGACCTTCGGCCCTCGACACGGACGGCATATCGCGCACCCGTGACGACAGTCACAGAAGGGTGATAACTTCGAGTGTCATGAGTCCTTTCACCGGCTCCGCCGCCCCCACCCCCGAGTGGCGGCACCTGGATCCTGAC (double strand) [SCO5978-SCO5979 intergenic region]”, the binding result in series [1] (setting [5]) is given as “binds”.

For “GTCAGAATTCTGATCGCGCTGGCCGCTGTCTCGGCCGGTGACGCCCTGGGACTGGGCCGGCTGTGGGCCAGGCTCCCGATCGTCCGCGACCACGCGTGGCTGCGCTGAACACGACCGGTGGGGCGGGCCCGCCCGAGGACCCGTCCCATCACCCTGCGGGCAGGGACGGTCGGCCCCGTCCCGGGACCACAGGCCCCTGCCCCCGTAGACCGCCCGAAGAGACGCTGAGAACAGAACAGAAGACACAGGAGGTGGCCGGAATGGCCCGCACGATCACCGTAGGACTCGACGGCTCGCCGGATCCTGAC (double strand) [uspA (SCO0200) promoter]”, the binding result in series [1] (setting [5]) is “binds”.

“GTCAGAATTCTGCCGTCGTGCCTGCATCATGGATCCCCCCAGGTTGGTGGCAACTGATGTCTCTACGACGCGCGGAGGGGCGCGCACGACGGCGCGGAACGGTTCCGAAGAGATCACGGTCCGGACTCGCGGCCGGACGGGGCGGCGGACGGGGCGCCGAGCGGGCGCCGGACGGGCGCGGGGCGGACGCGCGGGTGCACGGGTCGTACGCGTACGGGCCGTACGCGTACGGGTCGCGCGGGACCTGCGGGTCGGGGCCGGGGCCGTCCGGCCCCGGGGCGGTGTCGGTGGCGTCTGAGACGCTGGGGCCATGAGCGCAAGTGAGACCCCGGCGGGCGAGTTCCCACCGGAACAGGAACCCGGACACTGCAGTGAC (double strand) [SCO6040-SCO6041 intergenic region]”: the binding result in series [1] (setting [5]) is reported as “binds”.

For “GTCAGCGCGGTTGTCGCGGAGGTGGACAATGGTGTGGTGCTGCGGCACGCATTCGAGGAGGCCAGGCTGCGCGGAGTTCCGCTGCGGGCCGTGGCTGTCCACGCTGCTGAAACACCCGATGACGTCGAACAGGGCAGCCGGTTGGCGCATGTACACCTGAGCCGTCGGCTCGCCCACTGGACCCGGCTCTACCCCGAGGTGCGGGTGGATCGGGCCATCGCCGGCGGCAGTGCGTGCCGTCATCTGGCCGCCAACGCAAAGCCGGGTCAGCTGTTCGTCGCGGACTCACACTCCGCGCACGAATTGTGCGGTGCATACCAGCCCGGATGCGCCGTACTTACGGTACGCAGTGCCAACTTGTAGGGAGCGGATCTTGGGAGTGGTGCCCTGGTGGTAAAGGTC (double strand) [devR promoter]”, in series [1] (uM OsdR, recombinant protein, protein details: His6, label: 32P, probe letters rebuilt from the primers and the genome), the binding result was “binds”.

“GTCAGGATCCACCACTTCGTGGTCGTCCAGGAGGAAGACCCTGACCGGGCTTCCCGTGTTGTCGCCCTGCTCGCTGTGCGCCATCGGATGCTCCTCGCGATGTCTCGGCCCGTGTCGGAATCCTTTCTTCCCAGGATGGCCGAGGTCCAGGGCCGGTCGGCCCCGTTTCGCCCGCGTCAGTGGGCCATGAGGCCGTGCTCGCGGAACCGGACCCGTACGCGGTCCACCAGCGTCCTGTCCGGGACCGGGGTGTCACGCAGCGGGAAGGGGACGCCCAGGGCGTCGTACTTGGCGGGAATTCTGAC (double strand) [osdR (SCO0204) promoter]”: in series [1] (setting [5]), the binding result is “binds”.

As to “GTCAGGATCCCTCGCGAACACCAAGGTCAGGGCGGCCCCGTGGCGTACGCGGCGGGGCTGACAGAACAGGTCACGGCCTGACATGCCGGTGAGTCTAGGACAACGCGTGAGGGCCGCACGGTCCCTCGACCGCACGGCCCTCTTGGTATGTGTCACACCTTCAGGTACTTGCGCAACGCGAAGAACGCGGCCAACGCGGGCATCAGCAGGCTCGTGGCCAGGATGAGCGGCAGCTTCGTGAATTCTGAC (double strand) [SCO2967 promoter]”, the binding result in series [1] (setting [5]) is reported as “binds”.
